Experimental data published in doi:10.1101/2021.10.07.21264568.
Results are given in words; binding and its absence hold for the method and conditions named. In cells and extracts the contact can be indirect. These calls come from enrichment with a bait or labelling near it, and not all partners need be listed.

The chains behind the UniProt entries cited, without tags or fusion partners. Residues count along the entry.
UniProt Q13936: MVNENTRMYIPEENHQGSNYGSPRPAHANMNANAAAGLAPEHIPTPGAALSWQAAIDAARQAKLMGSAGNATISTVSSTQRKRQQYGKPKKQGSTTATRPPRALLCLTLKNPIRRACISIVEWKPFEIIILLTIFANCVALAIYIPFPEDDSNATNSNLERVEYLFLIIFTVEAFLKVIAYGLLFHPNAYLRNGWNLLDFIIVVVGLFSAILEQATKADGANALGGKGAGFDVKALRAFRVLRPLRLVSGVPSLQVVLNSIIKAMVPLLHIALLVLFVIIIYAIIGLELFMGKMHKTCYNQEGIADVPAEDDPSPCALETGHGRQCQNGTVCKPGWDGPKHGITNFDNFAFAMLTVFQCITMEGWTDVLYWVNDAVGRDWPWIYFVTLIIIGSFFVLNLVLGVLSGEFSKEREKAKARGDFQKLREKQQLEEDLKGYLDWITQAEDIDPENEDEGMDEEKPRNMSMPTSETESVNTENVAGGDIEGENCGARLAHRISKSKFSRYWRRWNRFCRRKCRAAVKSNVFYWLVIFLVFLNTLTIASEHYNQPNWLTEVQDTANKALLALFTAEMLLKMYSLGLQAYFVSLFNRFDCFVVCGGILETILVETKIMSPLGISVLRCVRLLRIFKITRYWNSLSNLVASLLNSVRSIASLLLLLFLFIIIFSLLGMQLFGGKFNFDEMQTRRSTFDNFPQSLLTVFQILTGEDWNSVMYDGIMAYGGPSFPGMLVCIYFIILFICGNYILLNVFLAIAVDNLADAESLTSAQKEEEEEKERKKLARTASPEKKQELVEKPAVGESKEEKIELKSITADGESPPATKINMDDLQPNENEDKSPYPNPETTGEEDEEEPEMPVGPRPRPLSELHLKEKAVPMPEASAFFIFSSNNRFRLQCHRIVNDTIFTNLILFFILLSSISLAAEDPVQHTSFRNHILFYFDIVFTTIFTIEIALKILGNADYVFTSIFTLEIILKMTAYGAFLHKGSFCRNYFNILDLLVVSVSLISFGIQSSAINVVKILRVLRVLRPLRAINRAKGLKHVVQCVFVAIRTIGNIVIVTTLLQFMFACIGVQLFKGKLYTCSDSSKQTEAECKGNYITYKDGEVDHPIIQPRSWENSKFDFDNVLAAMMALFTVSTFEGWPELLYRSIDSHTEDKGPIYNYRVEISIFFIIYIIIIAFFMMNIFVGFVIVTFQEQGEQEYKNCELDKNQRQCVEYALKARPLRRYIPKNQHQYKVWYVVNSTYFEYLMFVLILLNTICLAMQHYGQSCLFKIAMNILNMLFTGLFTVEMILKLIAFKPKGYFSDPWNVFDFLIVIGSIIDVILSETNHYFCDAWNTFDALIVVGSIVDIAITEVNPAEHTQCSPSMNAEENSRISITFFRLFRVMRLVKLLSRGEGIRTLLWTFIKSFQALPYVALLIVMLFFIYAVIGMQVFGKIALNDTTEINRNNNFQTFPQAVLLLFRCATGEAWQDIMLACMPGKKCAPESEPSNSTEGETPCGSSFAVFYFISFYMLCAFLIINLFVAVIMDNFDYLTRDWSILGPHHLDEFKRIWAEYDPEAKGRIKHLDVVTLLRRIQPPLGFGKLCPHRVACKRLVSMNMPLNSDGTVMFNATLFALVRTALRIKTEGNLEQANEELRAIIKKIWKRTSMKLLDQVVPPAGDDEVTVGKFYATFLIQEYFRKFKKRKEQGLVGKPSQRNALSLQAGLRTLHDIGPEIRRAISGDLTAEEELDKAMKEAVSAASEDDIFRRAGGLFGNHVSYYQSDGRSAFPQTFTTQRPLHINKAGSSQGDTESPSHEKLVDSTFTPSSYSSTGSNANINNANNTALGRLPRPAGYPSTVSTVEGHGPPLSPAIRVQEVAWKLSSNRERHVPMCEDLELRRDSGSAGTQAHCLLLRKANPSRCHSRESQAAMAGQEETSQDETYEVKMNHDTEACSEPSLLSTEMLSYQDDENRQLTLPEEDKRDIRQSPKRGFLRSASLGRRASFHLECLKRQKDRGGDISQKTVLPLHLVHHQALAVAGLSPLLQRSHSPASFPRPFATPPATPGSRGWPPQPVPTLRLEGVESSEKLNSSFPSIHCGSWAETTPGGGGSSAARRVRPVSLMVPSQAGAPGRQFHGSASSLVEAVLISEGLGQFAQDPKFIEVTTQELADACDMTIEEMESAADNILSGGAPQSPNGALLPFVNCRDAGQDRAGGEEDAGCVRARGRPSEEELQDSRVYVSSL
UniProt Q9UKA4: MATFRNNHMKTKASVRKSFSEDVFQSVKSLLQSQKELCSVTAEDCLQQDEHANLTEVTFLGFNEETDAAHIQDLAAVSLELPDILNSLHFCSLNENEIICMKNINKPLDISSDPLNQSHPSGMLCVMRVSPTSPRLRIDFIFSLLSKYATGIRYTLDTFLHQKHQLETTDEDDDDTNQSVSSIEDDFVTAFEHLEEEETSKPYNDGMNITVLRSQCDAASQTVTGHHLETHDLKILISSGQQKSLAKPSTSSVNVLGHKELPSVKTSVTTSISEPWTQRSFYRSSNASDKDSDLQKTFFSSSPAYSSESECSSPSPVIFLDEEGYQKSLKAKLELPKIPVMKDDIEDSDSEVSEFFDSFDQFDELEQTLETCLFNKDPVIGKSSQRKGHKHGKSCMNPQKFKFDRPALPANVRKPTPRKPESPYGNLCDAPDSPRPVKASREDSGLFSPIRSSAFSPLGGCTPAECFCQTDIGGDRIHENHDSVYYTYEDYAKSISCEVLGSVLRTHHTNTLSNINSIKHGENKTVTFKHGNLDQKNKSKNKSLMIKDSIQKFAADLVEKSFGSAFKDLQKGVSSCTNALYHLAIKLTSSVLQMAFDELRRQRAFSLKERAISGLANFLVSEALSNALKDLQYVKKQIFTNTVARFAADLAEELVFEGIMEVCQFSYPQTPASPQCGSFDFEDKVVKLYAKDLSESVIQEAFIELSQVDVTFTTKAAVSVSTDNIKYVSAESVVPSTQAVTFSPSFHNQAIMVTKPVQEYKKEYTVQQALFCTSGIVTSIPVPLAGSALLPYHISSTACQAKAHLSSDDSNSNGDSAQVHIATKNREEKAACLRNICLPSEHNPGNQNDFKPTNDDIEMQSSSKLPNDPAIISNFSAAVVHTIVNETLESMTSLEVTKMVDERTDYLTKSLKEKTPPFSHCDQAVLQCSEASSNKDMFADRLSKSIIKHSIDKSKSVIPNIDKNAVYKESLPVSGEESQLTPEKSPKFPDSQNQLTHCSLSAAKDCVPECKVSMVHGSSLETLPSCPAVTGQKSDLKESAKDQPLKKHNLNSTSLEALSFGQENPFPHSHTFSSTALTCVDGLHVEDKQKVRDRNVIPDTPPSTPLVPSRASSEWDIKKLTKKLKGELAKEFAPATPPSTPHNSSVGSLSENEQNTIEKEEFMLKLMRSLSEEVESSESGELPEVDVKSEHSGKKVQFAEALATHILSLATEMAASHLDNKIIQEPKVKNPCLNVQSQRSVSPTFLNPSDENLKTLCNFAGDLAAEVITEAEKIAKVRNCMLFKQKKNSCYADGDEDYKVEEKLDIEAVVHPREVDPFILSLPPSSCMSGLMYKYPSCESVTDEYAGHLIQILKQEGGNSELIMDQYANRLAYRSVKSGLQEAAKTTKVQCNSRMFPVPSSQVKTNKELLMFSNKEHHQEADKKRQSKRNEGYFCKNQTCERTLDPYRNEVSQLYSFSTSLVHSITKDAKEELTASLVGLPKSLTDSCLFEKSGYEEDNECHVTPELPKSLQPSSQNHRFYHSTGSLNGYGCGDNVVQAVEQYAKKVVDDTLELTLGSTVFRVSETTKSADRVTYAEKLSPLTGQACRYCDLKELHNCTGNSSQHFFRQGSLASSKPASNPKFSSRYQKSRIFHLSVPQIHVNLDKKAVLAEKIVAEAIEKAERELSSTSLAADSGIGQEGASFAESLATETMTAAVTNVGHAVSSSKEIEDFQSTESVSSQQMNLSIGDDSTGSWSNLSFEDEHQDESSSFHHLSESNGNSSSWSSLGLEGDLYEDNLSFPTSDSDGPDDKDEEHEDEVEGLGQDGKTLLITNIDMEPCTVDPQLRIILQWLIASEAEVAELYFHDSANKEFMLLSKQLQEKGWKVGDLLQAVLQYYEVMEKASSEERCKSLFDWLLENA
UniProt P01024, residues 23-1663: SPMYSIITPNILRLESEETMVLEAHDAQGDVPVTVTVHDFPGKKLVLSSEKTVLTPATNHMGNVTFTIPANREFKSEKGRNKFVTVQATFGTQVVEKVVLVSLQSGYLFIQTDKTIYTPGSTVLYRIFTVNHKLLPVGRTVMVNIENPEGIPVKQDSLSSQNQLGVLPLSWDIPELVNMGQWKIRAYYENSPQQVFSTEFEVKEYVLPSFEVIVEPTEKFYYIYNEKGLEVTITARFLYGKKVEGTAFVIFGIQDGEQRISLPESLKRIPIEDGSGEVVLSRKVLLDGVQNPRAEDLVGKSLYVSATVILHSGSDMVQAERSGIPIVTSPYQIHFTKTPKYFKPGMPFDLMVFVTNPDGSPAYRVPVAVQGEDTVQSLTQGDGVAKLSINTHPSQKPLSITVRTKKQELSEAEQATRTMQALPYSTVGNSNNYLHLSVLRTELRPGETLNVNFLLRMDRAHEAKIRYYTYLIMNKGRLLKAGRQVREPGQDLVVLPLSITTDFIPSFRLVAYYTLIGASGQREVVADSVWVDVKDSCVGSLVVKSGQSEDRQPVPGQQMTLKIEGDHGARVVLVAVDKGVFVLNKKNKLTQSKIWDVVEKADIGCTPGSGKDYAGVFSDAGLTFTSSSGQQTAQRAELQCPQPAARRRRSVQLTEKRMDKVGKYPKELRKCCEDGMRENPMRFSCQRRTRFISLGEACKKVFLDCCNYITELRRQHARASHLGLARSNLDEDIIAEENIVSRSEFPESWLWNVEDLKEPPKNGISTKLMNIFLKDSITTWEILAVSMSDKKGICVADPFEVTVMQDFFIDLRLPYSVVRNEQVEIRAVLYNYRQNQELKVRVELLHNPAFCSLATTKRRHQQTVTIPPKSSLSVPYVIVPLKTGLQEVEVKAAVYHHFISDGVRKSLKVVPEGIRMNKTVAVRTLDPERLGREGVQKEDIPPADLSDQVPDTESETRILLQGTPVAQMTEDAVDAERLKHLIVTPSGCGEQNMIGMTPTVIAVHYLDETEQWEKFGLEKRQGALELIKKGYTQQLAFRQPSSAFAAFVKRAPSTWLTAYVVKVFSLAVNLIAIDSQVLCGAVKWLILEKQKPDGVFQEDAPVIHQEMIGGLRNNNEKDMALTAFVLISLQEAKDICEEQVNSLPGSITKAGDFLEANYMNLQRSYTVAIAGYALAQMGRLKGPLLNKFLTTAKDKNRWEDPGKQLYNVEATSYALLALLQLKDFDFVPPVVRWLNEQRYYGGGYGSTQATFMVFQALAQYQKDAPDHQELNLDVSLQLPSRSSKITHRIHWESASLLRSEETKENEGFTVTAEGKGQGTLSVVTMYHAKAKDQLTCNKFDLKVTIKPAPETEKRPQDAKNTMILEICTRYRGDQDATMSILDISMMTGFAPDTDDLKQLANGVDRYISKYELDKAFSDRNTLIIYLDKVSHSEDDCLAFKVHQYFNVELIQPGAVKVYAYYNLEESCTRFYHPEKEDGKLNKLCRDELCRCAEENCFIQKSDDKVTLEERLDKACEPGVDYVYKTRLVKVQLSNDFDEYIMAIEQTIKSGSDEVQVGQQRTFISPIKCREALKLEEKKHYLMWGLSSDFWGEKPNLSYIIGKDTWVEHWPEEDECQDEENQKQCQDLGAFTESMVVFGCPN

How the values were obtained:
[1] = biological target: T1, HCN1 (human (endogenous in induced neurons)) (UniProt O60741); assay: affinity purification with mass spectrometry
T1 sequence: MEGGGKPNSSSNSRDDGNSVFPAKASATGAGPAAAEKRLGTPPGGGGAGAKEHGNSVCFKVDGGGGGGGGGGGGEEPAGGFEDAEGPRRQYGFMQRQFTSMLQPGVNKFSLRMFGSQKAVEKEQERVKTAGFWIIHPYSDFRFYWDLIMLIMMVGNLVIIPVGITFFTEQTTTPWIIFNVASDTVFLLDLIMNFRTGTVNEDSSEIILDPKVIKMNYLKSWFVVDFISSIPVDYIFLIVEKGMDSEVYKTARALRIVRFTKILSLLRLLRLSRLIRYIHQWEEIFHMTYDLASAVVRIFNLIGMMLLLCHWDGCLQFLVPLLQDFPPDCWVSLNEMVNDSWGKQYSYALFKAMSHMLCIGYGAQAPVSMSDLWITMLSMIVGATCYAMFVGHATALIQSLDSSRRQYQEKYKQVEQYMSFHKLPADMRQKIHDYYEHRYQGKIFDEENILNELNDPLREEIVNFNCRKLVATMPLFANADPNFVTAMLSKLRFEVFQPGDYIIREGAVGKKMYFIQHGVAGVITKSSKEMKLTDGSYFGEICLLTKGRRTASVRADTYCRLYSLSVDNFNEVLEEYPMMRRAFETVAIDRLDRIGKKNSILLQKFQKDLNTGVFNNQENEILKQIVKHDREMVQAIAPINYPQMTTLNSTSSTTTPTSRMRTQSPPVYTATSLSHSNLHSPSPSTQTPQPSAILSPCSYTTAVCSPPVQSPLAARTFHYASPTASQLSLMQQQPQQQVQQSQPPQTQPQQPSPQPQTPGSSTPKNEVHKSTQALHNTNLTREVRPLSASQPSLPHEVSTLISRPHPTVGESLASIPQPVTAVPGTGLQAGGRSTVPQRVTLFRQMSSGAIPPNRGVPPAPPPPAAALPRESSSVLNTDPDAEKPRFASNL

[2] = biological target: CACNA1C (human (endogenous in induced neurons)) (UniProt Q13936); assay: affinity purification with mass spectrometry

## AKAP11 (from UniProt Q9UKA4 1-1901)
[1]
  binding: binds

## C3 (from UniProt P01024 23-1663)
[2]
  binding: binds
